The supplement of paper PMC4683952
This is one part of the list. No stated cut-off is given here; in the data, active = 2 or more and inactive = the rest. Most values lie within the scatter of the assay; repeated measurements hardly agree.

Test system: Lgr5 (MarsCy1-Lgr5-EGFP, U2OS)
Assay: cell-surface Lgr5 expression (SCi1 fluorescence, background-subtracted) relative to WT DMSO (fold of DMSO control); higher = more Lgr5 at the plasma membrane
Conditions: U2OS MarsCy1-Lgr5-EGFP stable; treatment time: overnight; library: ActiProbe-5K (TimTec); 25 µM

SMILES | cell-surface Lgr5 expression
COC(=O)c1c(N2C(=O)C=CC2=O)sc(C)c1C | inactive: 1.6
Sc1nnc(Cc2cccc3ccccc23)o1 | active: 2.2
C/C(=N\NC(N)=S)c1ccco1 | inactive: 1.16
CC1CCN(S(=O)(=O)N(C)C)CC1 | inactive: 1.13
CCc1ccc(/C=C(/C#N)C(N)=S)s1 | inactive: 0.911
O=Cc1ccc(S(=O)(=O)[O-])cc1S(=O)(=O)[O-] | inactive: 1.22
COc1ccc(OC)c(Nc2ccc([N+](=O)[O-])cc2[N+](=O)[O-])c1 | inactive: 1.9
O=S(=O)(O/N=C1\CCCc2sc(Cl)cc21)c1ccccc1 | inactive: 1.34
O=S(=O)(Nc1nccs1)c1ccc2ccccc2c1 | inactive: 1.16
O=[N+]([O-])c1ccc(NC2CC(O)C(CO)O2)cc1 (stereo not given) | inactive: 1.21
C#CCOc1ccc(/C=C2/NC(=O)NC2=O)cc1Br | inactive: 1.72
OCC1(CO)COC2(CCCCC2)N1 | inactive: 1.21
CCOc1cc2c(cc1OCC)C(C)=NCC2 | inactive: 1.11
O=C(O)c1nsnc1C(O)C(O)C(=O)O (stereo not given) | inactive: 1.33
C1CCC(=N/Nc2nc(c(CCCC)c(n2)C)O)/CC1 | inactive: 1.26
Clc1ccc(Nc2nc(C3CC3)cs2)cc1 | inactive: 0.942
O=C1c2cccnc2C(=O)N1c1ccc(Cl)cn1 | inactive: 1.2
CCCSc1nc2c(c(C(F)(F)F)c1C#N)CCCCCC2 | inactive: 1.15
O=S(=O)(Nc1ncccn1)c1ccc(F)cc1 | inactive: 0.931
CC1(C)OC[C@@H]([C@@H]2OC(=O)C(O)=C2O)O1 | inactive: 1.17
CC(C)(C)Sc1ccc(SC(C)(C)C)s1 | inactive: 1.51
C1CCC(C(CC2CCCCN2)C2CCCCC2)CC1.O=C(O)/C=C\C(=O)O (stereo not given) | inactive: 0.34

SMILES | cell-surface Lgr5 expression
O=S(=O)(Nc1cc(Cl)ccc1Cl)c1ccc(Cl)cc1 | inactive: 1.03
CS(=O)(=O)NC(c1ccccc1)c1ccccc1 | inactive: 1.06
O=C(CCC(=O)NCCC1=CCCCC1)NCCC1=CCCCC1 | inactive: 1.08
CC(C)(C)C1CCc2c(sc3c2C(=O)NC(c2cccs2)N3)C1 (stereo not given) | inactive: 0.841
CCS(=O)(=O)Nc1ccc(Cl)cn1 | inactive: 1.08
Sc1nc2ccccc2n1C12CC3CC(CC(C3)C1)C2 | inactive: 1.11
c1(cc(cc(o1)=O)C)/C=C(\Cl)Cl | inactive: 1.39
COc1ccc(/C=N/NC(=O)c2nnn(-c3nonc3N)c2CN2CCCCCC2)cc1CSc1nc2ccccc2o1 | inactive: 1.18
OC1=NC(=N\N=C/c2ccccc2)/S/C1=C/c1ccccc1 | inactive: 1.2
C[N+](C)(CC(=O)c1ccc(Br)cc1)CC12CC3CC(CC(C3)C1)C2 | inactive: 1.03
Cc1ccc(O)c(C2=NOC(O)(C(F)(F)F)C2)c1 (stereo not given) | inactive: 1.22
N#CCSc1nc(-c2ccccc2)cc(-c2ccccc2)c1C#N | active: 2.21
N#Cc1c(SCC(=O)C23CC4CC(CC(C4)C2)C3)sc2c(O)cc(=O)[nH]c12 | inactive: 1.28
CN(c1c[nH]c(=O)[nH]c1=O)C1CCCCC1 | inactive: 0.985
CCC(C)NS(=O)(=O)c1c(C)cc(C)cc1C (stereo not given) | inactive: 1.02
NC(=O)c1c(N)sc2c1CCCC2 | inactive: 1.25
COc1cc(-c2nc3sc(-c4cc(OC)c(O)c(OC)c4)nc3s2)cc(OC)c1O | inactive: 1.72
Nc1cc([N+](=O)[O-])cc2c1C=Cc1ccccc1O2 | inactive: 1.23
Cc1sc(NC(=O)C2CC2)c(C(N)=O)c1C | inactive: 1.12
CCOC(=O)c1nc(Cn2cc(Br)cn2)no1 | inactive: 1.15
CCN(CC)C(=O)COCC1CCCN2CCCCC12 (stereo not given) | inactive: 0.953
[O-]c1n[n+](-c2ccccc2)no1 | inactive: 1.3

SMILES | cell-surface Lgr5 expression
O=c1[nH]c2ccccc2c2nnnn12 | inactive: 0.913
N#Cc1c(/N=C\c2cc(Cl)cc(Cl)c2O)sc2c1CCC2 | inactive: 0.983
O=[N+]([O-])c1c(Sc2nnnn2C2CCCCC2)ncnc1Sc1nnnn1C1CCCCC1 | inactive: 1.32
Cn1ccnc1/C=N\Nc1cc(Cl)cc(Cl)c1 | inactive: 1.26
O=c1[nH]nc2[nH]c3ccccc3n2c1=O | inactive: 1.13
CCSc1nc(C2CC2)cc(C(F)(F)F)c1C#N | inactive: 1.2
CCc1nc2sc(C)c(C)c2c(=O)n1N | inactive: 1.03
N#CCN(CC#N)C(=O)c1ccco1 | inactive: 1.03
O=c1oc(-c2cc3ccccc3s2)ns1 | inactive: 1.16
c1(/n(c2cc(Cl)ccc2s1)C)=C(\C#N)C#N | inactive: 1.1
CC1(C)CC(=O)c2sc(NC(=O)C3CC(=O)N(C4CCCCC4)C3)nc2C1 (stereo not given) | inactive: 1.24
c1coc(CSCc2ccco2)c1 | inactive: 1.21
O=C(N/N=C\c1ccoc1)C1CCCCC1 | inactive: 1.32
Nc1nc(C(F)(F)F)nn1CC(=O)O | inactive: 1.2
COc1ccc(OC)c(S(=O)(=O)Nc2cc3oc4ccccc4c3cc2OC)c1 | inactive: 1.19
N#Cc1c(NC(=O)C(F)(F)F)sc2c1CCCC2 | inactive: 0.821
O=[N+]([O-])c1ccc(S(=O)Nc2ccc(O)cc2)cc1 (stereo not given) | inactive: 1.06
Cc1[nH]nc2c1C1(CCOC1C)C(C#N)=C(N)O2 (stereo not given) | inactive: 1.11
C/C=C1\CC(C)(CC)C(C#N)(C#N)C(N)=C1C#N (stereo not given) | inactive: 0.936
O=C1NC2(CCCCC2)NC2=C1CCCC2 | inactive: 1.12
Cc1cc(C)c(-c2cc(C(F)(F)F)[nH]n2)c(=O)[nH]1 | inactive: 1.04
O=c1[nH]cnc2sc3c(c12)CCCC3 | inactive: 0.933

SMILES | cell-surface Lgr5 expression
O=S(=O)(c1ccccc1)c1cc(O)ccc1O | inactive: 1.33
Cn1c(=O)c2cc(S(=O)(=O)NC3CC3)ccc2n(C)c1=O | inactive: 1.01
CCn1cc(Cl)c(C(=O)NC2=NCCS2)n1 | inactive: 1.32
NC1CCSc2ccccc21 (stereo not given) | inactive: 1.19
CC(C)(C1=CC(=O)c2ccccc2C1=O)C1OCC2(CO1)CC1C=CC2C1 (stereo not given) | inactive: 0.811
CC(=C/c1ccco1)/C=N/NC(=O)c1ccoc1C | inactive: 1.12
[O-]/[N+](=N/OCc1ccccc1)c1cccc(Br)c1 | inactive: 0.624
CC(=O)[C@H]1C[C@@H](CC#N)C1(C)C | inactive: 0.882
O=C1NC(=O)/C(=C/c2ccc(F)cc2)S1 | inactive: 1.08
OC(CCl)CSc1nc2ccccc2s1 (stereo not given) | inactive: 1.03
CN(C)CCSc1nc(-c2ccccc2)nc2c1CCC2 | inactive: 0.892
c1ccc2c(c1)[nH]c1nc3nnnn3nc12 | inactive: 1.12
O=C(O)CCC1=NNC(=O)CC1 | inactive: 1.28
c1ccc2c(c1)-c1ccccc1C2N1CCNCC1 | inactive: 0.957
c1ccc(CN2CCN(Cc3ccccc3)C2c2c[nH]c3ccccc23)cc1 | inactive: 1.17
Fc1ccc(Cn2nc(Cl)nc2Cl)cc1 | inactive: 1.39
COc1nsc2ccc(N)cc12 | inactive: 0.882
Cn1c(COc2ccccc2)nc2ccccc21 | inactive: 0.972
Cn1c(SCc2csc(C3CCCCC3)n2)nc2sc3c(c2c1=O)CCCC3 | inactive: 1.09
N/C(=N\O)C(c1ccccc1)c1ccccc1 | inactive: 1.35
O=C1Nc2ccc(F)cc2/C1=C1/S/C(=N/c2ccccc2)N(c2ccccc2)C1=O | inactive: 1.4
O=C(NC1CCCCCC1)c1ccc(Br)o1 | inactive: 1.24

SMILES | cell-surface Lgr5 expression
Cc1ccc(S(=O)(=O)OCC2COC(C)(C)O2)cc1 (stereo not given) | inactive: 0.981
CC1(CO)COC(COc2ccccc2)=N1 (stereo not given) | inactive: 1.14
Brc1ccc2c(c1)C1Oc3ccc(Br)cc3C(O2)O1 | inactive: 0.971
O=C1COc2c(Br)cc(Br)cc2O1 | inactive: 1.18
Oc1ccc2cc(Br)ccc2c1Br | inactive: 1.01
Brc1ccc(/C=N/n2cnnc2)cc1 | inactive: 1.3
N#Cc1c(/N=C\c2ccc(Br)s2)sc2c1CCCC2 | inactive: 1.51
CCc1c(C)c(C#N)c2n(c1=O)CC(C)O2 (stereo not given) | inactive: 0.932
Clc1cccc(C2CC(c3ccc4ccccc4c3)=NN2c2ccccc2)c1 (stereo not given) | inactive: 1.04
O=c1c(/C=N\Cc2ccco2)c(NCc2ccco2)nc2ccccn12 | inactive: 1.05
Cc1nc2c(ccc3nc(C)[nH]c32)[nH]1 | inactive: 1.02
CCCC(C)C(=O)Nc1cc(C)on1 (stereo not given) | inactive: 1.01
O=c1nc(NC2CCCCCCCCCCC2)cn[nH]1 | inactive: 1.16
Cn1ccnc1SC/C=C/CSc1nccn1C | inactive: 1.29
S=C(NCC1COc2ccccc2O1)NC1CCCCC1 (stereo not given) | inactive: 0.931
CNc1nc2[nH]c(=O)cc(O)c2s1 | inactive: 1.07
CC(=O)NC(C)(C)c1cn(-c2nonc2N)nn1.CC(=O)NC(C)(C)c1cnnn1-c1nonc1N | inactive: 0.825
CC(=O)N/C=C1\C(=O)N(C)C(=O)C(C#N)=C1C | inactive: 1.54
c1coc(CNc2nc3nonc3nc2NCc2ccco2)c1 | inactive: 1.18
O=c1[nH]nc(CSCc2ccc(Cl)cc2)[nH]1 | inactive: 1.41
N#CCCSc1sc2c(O)cc(=O)[nH]c2c1C#N | inactive: 1.13
OC1=C2C(=Nc3ccccc3SC2c2ccccc2)c2ccccc21 (stereo not given) | inactive: 1.23

Reformatted: entries from further up.
SMILES	cell-surface Lgr5 expression
Cn1c(=O)c2cc(S(=O)(=O)NC3CC3)ccc2n(C)c1=O	inactive: 1.01
CCn1cc(Cl)c(C(=O)NC2=NCCS2)n1	inactive: 1.32
NC1CCSc2ccccc21 (stereo not given)	inactive: 1.19
